Assay results from patent US20130317134A1, “TISSUE ADHESIVE BASED ON TRIFUNCTIONAL ASPARTATES” (Bayer Intellectual Property GmbH Creative Campus Monheim, priority 2011, published 2013).

Test: Tack free time, adhesion test using a glass rod
Procedure: The time after which the polyurea system was no longer tacky (tack free time) was measured by adhesion tests using a glass rod. To that end, the glass rod was brought into contact with the layer of the polyurea system. When the rod no longer adhered, the system was considered to be tack-free. In addition, the adhesive force was determined by coating two pieces of muscle tissue (1=4 cm, h=0.3 cm, b=1 cm) with the polyurea system 1 cm from the ends and adhesively bonding them so that they overlapped. The adhesive force of the polyurea system was tested in each case by pulling.

[1] = polyurea system of Prepolymer A with equivalent amount of curing agent
[2] = polyurea system of Prepolymer B with equivalent amount of curing agent

| Structure (SMILES) | Tack free time [1] | Tack free time [2] | time after which still not tack-free (reacted with prepolymer B, text of Comparison Example 1) |
| --- | --- | --- | --- |
| CCOC(=O)CC(NCCCC(CCCNC(CC(=O)OCC)C(=O)OCC)CCCNC(CC(=O)OCC)C(=O)OCC)C(=O)OCC (centres unmarked) [Compound 3, Tetraethyl 2,2′-(4-(3-(1,4-diethoxy-1,4-dioxobutan-2-ylamino)propyl)heptane-1,7-diyl)bis-(azandiyl)disuccinate] | 2 min | 2 min |  |
| CCOC(=O)CC(NCCCC(C)CNC(CC(=O)OCC)C(=O)OCC)C(=O)OCC (centres unmarked) [Compound 4, tetraethyl 2,2′-[(2-methylpentane-1,5-diyl)diimino]dibutanoate] |  | >30 min | > 10 min |
| CCOC(=O)CC(NCCCCC(CCCNC(CC(=O)OCC)C(=O)OCC)CNC(CC(=O)OCC)C(=O)OCC)C(=O)OCC (centres unmarked) [Compound 5, Diethyl 2-[(8-[(1,4-diethoxy-1,4-dioxobutan-2-yl)amino]-4-{[(1,4-diethoxy-1,4-dioxobutan-2-yl)-amino]methyl}octyl)amino]butanedioate] | 5 min |  |  |
